# Some results were stated once for a whole list of compounds, not compound by compound. At least one compound was matched to its structure with a doubt left. Some compounds share one range, which may span the group rather than tell each member.
# Amino acid sequences for entries named in this document (tags omitted). A change or cut given only in a name is not applied to a line headed by its entry.
# UniProt P06526: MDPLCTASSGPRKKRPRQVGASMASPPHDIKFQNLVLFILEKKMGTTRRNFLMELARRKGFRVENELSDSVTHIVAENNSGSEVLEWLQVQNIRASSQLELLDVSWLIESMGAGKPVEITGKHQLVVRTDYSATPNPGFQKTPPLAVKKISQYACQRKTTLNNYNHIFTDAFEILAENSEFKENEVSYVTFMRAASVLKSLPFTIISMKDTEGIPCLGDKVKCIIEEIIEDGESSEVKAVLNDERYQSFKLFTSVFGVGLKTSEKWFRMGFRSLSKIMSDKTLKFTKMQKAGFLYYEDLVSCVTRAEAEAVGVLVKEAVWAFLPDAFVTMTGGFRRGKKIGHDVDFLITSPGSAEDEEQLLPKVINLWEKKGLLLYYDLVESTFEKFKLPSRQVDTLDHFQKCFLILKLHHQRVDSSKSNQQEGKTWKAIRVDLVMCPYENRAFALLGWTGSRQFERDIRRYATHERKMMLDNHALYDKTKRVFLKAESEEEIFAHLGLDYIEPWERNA
# Target: terminal deoxynucleotidyl transferase (Bos taurus, UniProt P06526)
# Assay: oligonucleotide tailing reaction with terminal deoxynucleotidyl transferase
# Assay type: biochemical
# Details: 32 μM nucleotide, 25 U terminal deoxynucleotidyl transferase, 15 mer primer, 90 minutes at 37° C.
# Text: 1-(2′-deoxy-5′-triphospho-β-D-ribofuranosyl)piperidino[2,3-d]pyrimidine-2(1H)-one (1.6), 6-methylamine-3-(5-triphospho-2-deoxy-β-D-erythro-pentofuranosyl)furano[2,3-d]pyrimidin-2-one) (3.3a) and 5-FAM-(6-methylamine-3-(5-triphospho-2-deoxy-β-D-erythro-pentofuranosyl)furano[2,3-d]pyrimidin-2-one) (3.3b), 6-methyl-N-(6-amino)-caproamide-3-(5-triphospho-2-deoxy-β-D-erythro-pentofuranosyl)furano[2,3-d]pyrimidin-2-one (4.3a) and 5-FAM-(6-methyl-N-(6-amino)-caproamide-3-(5-triphospho-2-deoxy-β-D-erythro-pentofuranosyl)furano[2,3-d]pyrimidin-2-one) (4.3b), 6-methylamine-3-(5-triphospho-2-deoxy-β-D-erythro-pentofuranosyl)pyrrolo[2,3-d]pyrimidin-2-one) (8.1), 6-methyl-N-(6-amino)-caproamide-3-(5-triphospho-2-deoxy-β-D-erythro-pentofuranosyl)pyrrolo[2,3-d]pyrimidin-2-one (10.1a), and the FAM and Cy5 of (10.1a, e.g. 10.1b and 10.1c) as substrates for terminal deoxynucleotidyl transferase. In order to test the ability of compounds (1.6), (3.3a), (3.3b), (4.3a), (4.3b), (8.1), (10.1a), (10.1b) and (10.1c) to be accepted by terminal deoxynucleotidyl transferase as a substrate, an oligonucleotide tailing reaction was performed.
# A 15 mer primer (sequence: 5′ TGC ATG TGC TGG AGA 3′) and 8 to 32 base oligonucleotide markers were 5′ end labelled with [γ^33P] ATP and T4 polynucleotide kinase. Reactions were boiled for 5 minutes after labelling to remove any PNK activity. Four picomoles of the labelled primer, 25 U terminal deoxynucleotidyl transferase and 32 μM dATP, dCTP, dGTP, dTTP or compounds (1.6), (3.3a), (3.3b), (4.3a), (4.3b), (8.1), (10.1a), (10.1b) and (10.1c) were incubated in 25 μl 100 mM cacodylate buffer pH7.2, 2 mM CoCl2 and 0.2 mM 2-mercaptoethanol for 90 minutes at 37° C. The reactions were stopped by the addition of formamide stop solution and the reaction products run on a 19% polyacrylamide 7M urea gel with the labelled markers. Autoradiography using Biomax film was carried out on the dry gel.
row,SMILES,3′ tail length
1,NCc1cc2cn([C@H]3C[C@H](O)[C@@H](COP(=O)(O)OP(=O)(O)OP(=O)(O)O)O3)c(=O)nc2[nH]1 [Compound 8.1],2-3 bases
2,"O=C(NCc1cc2cn([C@H]3C[C@H](O)[C@@H](COP(=O)(O)OP(=O)(O)OP(=O)(O)O)O3)c(=O)nc2o1)c1ccc2c(c1)C(=O)OC21c2ccc(O)cc2Oc2cc(O)ccc21 [Compound 3.3b, 5-Carboxyfluoresceinyl-(6-methylamine-3-(5-triphospho-2-deoxy-β-D-erythro-pentofuranosyl)furano[2,3-d]pyrimidin-2-one)]",2-3 bases
3,NCc1cc2cn([C@H]3C[C@H](O)[C@@H](COP(=O)(O)OP(=O)(O)OP(=O)(O)O)O3)c(=O)nc2o1 [Compound 3.3a],2-3 bases
